Test results reported in patent publication US9549558B2, “Herbicidal azines” (BASF SE, priority 2012, dated 2017).
Some of these results come from one statement about several compounds together.

What was measured:
Experiment in all cases: greenhouse pre-emergence herbicidal test
Type in all cases: in vivo
[1] = tested on: AMARE (Amaranthus retroflexus)
Source text: The seeds of the test plants were sown separately for each species. For the pre-emergence treatment, the active ingredients, which had been suspended or emulsified in water, were applied directly after sowing by means of finely distributing nozzles. The containers were irrigated gently to promote germination and growth and subsequently covered with transparent plastic hoods until the plants had rooted. This cover caused uniform germination of the test plants, unless this had been impaired by the active ingredients. Depending on the species, the plants were kept at 10-25° C. or 20-35° C., respectively. The test period extended over 2 to 4 weeks. During this time, the plants were tended, and their response to the individual treatments was evaluated. […] A moderate herbicidal activity is given at values of at least 60, a good herbicidal activity is given at values of at least 70, and a very good herbicidal activity is given at values of at least 85. The plants used in the greenhouse experiments were of the following species: [table]

SETVI (Setaria viridis) = tested on: SETVI (Setaria viridis)
Source text: (§1) The culture containers used were plastic flowerpots containing loamy sand with approximately 3.0% of humus as the substrate. The seeds of the test plants were sown separately for each species.
(§2) For the pre-emergence treatment, the active ingredients, which had been suspended or emulsified in water, were applied directly after sowing by means of finely distributing nozzles. The containers were irrigated gently to promote germination and growth and subsequently covered with transparent plastic hoods until the plants had rooted. This cover caused uniform germination of the test plants, unless this had been impaired by the active ingredients.
(§3) Depending on the species, the plants were kept at 10-25° C. or 20-35° C., respectively.
(§4) The test period extended over 2 to 4 weeks. During this time, the plants were tended, and their response to the individual treatments was evaluated.
(§5) Evaluation was carried out using a scale from 0 to 100. 100 means no emergence of the plants, or complete destruction of at least the aerial moieties, and 0 means no damage, or normal course of growth. A moderate herbicidal activity is given at values of at least 60, a good herbicidal activity is given at values of at least 70, and a very good herbicidal activity is given at values of at least 85.
(§6) The plants used in the greenhouse experiments were of the following species: […]

[2] = tested on: CAPBP (Capsella bursa-pastoris)
Source text: as §1, §2, §3, §4, §5, §6

STEME (Stellaria media) = tested on: STEME (Stellaria media)
Source text: as §1, §2, §3, §4, §5, §6

[3] = tested on: ECHCG (Echinocloa crus-galli); conditions: 125 g/ha
Source text: as §1, §2, §3, §4, §5, §6

`CC(C)(F)c1nc(N)nc(Nc2c(F)c(F)c(O)c(F)c2F)n1` [Example 184] was tested, and the herbicidal activity ([1]; 1000 g/ha) was “very good (a very good herbicidal activity is given at values of at least 85)”.
In the case of `Nc1nc(Nc2c(F)cccc2F)nc(C2CCC2)n1` [Example 85], the herbicidal activity ([1]; 125 g/ha) is reported as “very good (a very good herbicidal activity is given at values of at least 85)”.
With `CC(C)(Cl)c1nc(N)nc(Nc2c(F)cccc2C#N)n1` [Example 113] the herbicidal activity (SETVI (Setaria viridis); 250 g/ha) was “very good (a very good herbicidal activity is given at values of at least 85)”, the herbicidal activity ([2]; 250 g/ha) was “very good (a very good herbicidal activity is given at values of at least 85)” and the herbicidal activity (STEME (Stellaria media); 250 g/ha) was “very good (a very good herbicidal activity is given at values of at least 85)”.
`Nc1nc(Nc2c(F)ccc(F)c2F)nc(C2CCC2)n1` [Example 169] was tested, and the herbicidal activity (SETVI (Setaria viridis); 250 g/ha) was “very good (a very good herbicidal activity is given at values of at least 85)”, the herbicidal activity ([2]; 250 g/ha) was “very good (a very good herbicidal activity is given at values of at least 85)” and the herbicidal activity (STEME (Stellaria media); 250 g/ha) was “very good (a very good herbicidal activity is given at values of at least 85)”.
`CCC(C)(F)c1nc(N)nc(Nc2c(F)ccc(Cl)c2F)n1` (centres unmarked) [Example 77] was tested, and the herbicidal activity (SETVI (Setaria viridis); 125 g/ha) was “very good (a very good herbicidal activity is given at values of at least 85)”, the herbicidal activity ([2]; 125 g/ha) was “very good (a very good herbicidal activity is given at values of at least 85)” and the herbicidal activity (STEME (Stellaria media); 125 g/ha) was “very good (a very good herbicidal activity is given at values of at least 85)”.
With `CCC(C)(C)c1nc(N)nc(Nc2c(F)c(F)c(F)c(F)c2F)n1` [Example 82] the herbicidal activity (SETVI (Setaria viridis); 125 g/ha) was “very good (a very good herbicidal activity is given at values of at least 85)”, the herbicidal activity ([2]; 125 g/ha) was “very good (a very good herbicidal activity is given at values of at least 85)” and the herbicidal activity (STEME (Stellaria media); 125 g/ha) was “very good (a very good herbicidal activity is given at values of at least 85)”.
`C#Cc1c(F)c(F)c(Nc2nc(N)nc(C(C)(C)F)n2)c(F)c1F` [Example 102] was tested, and the herbicidal activity (SETVI (Setaria viridis); 250 g/ha) was “very good (a very good herbicidal activity is given at values of at least 85)”, the herbicidal activity ([2]; 250 g/ha) was “very good (a very good herbicidal activity is given at values of at least 85)” and the herbicidal activity (STEME (Stellaria media); 250 g/ha) was “very good (a very good herbicidal activity is given at values of at least 85)”.
`CC(=O)Nc1nc(N(C(C)=O)c2c(F)c(F)c(F)c(F)c2F)nc(C(C)(C)F)n1` [Example 290] was tested, and the herbicidal activity (SETVI (Setaria viridis); 250 g/ha) was “very good (a very good herbicidal activity is given at values of at least 85)”, the herbicidal activity ([2]; 250 g/ha) was “very good (a very good herbicidal activity is given at values of at least 85)” and the herbicidal activity (STEME (Stellaria media); 250 g/ha) was “very good (a very good herbicidal activity is given at values of at least 85)”.
For `CC(C)c1nc(N)nc(Nc2c(F)ccc(F)c2F)n1` [Example 148], the herbicidal activity (SETVI (Setaria viridis); 250 g/ha) was “very good (a very good herbicidal activity is given at values of at least 85)”, the herbicidal activity ([2]; 250 g/ha) was “very good (a very good herbicidal activity is given at values of at least 85)” and the herbicidal activity (STEME (Stellaria media); 250 g/ha) was “very good (a very good herbicidal activity is given at values of at least 85)”.
In the case of `Nc1nc(Nc2c(F)cccc2F)nc(C2CCCC2)n1` [Example 86], the herbicidal activity ([1]; 125 g/ha) is reported as “very good (a very good herbicidal activity is given at values of at least 85)”.
For `Nc1nc(Nc2c(F)c(F)c(F)c(F)c2F)nc(C2(Cl)CCCC2)n1` [Example 96], the herbicidal activity (SETVI (Setaria viridis); 250 g/ha) was “very good (a very good herbicidal activity is given at values of at least 85)”, the herbicidal activity ([2]; 250 g/ha) was “very good (a very good herbicidal activity is given at values of at least 85)” and the herbicidal activity (STEME (Stellaria media); 250 g/ha) was “very good (a very good herbicidal activity is given at values of at least 85)”.
In the case of `CC(C)(C)c1nc(N)nc(Nc2c(F)c(F)cc(F)c2F)n1` [Example 91], the herbicidal activity (SETVI (Setaria viridis); 125 g/ha) is reported as “very good (a very good herbicidal activity is given at values of at least 85)”, the herbicidal activity [3] is reported as “very good (a very good herbicidal activity is given at values of at least 85)” and the herbicidal activity (STEME (Stellaria media); 125 g/ha) is reported as “very good (a very good herbicidal activity is given at values of at least 85)”.
For `CC(C)C(C)c1nc(N)nc(Nc2c(F)c(F)c(F)c(F)c2F)n1` (centres unmarked) [Example 92], the herbicidal activity (SETVI (Setaria viridis); 125 g/ha) was “very good (a very good herbicidal activity is given at values of at least 85)”, the herbicidal activity ([2]; 125 g/ha) was “very good (a very good herbicidal activity is given at values of at least 85)” and the herbicidal activity (STEME (Stellaria media); 125 g/ha) was “very good (a very good herbicidal activity is given at values of at least 85)”.
`CC(C)(F)c1nc(N)nc(Nc2c(C(F)(F)F)ccc(Cl)c2F)n1` [Example 106] was tested, and the herbicidal activity (SETVI (Setaria viridis); 125 g/ha) was “very good (a very good herbicidal activity is given at values of at least 85)”, the herbicidal activity [3] was “very good (a very good herbicidal activity is given at values of at least 85)” and the herbicidal activity (STEME (Stellaria media); 125 g/ha) was “very good (a very good herbicidal activity is given at values of at least 85)”.
`CCC(C)(C)c1nc(N)nc(Nc2c(F)c(F)cc(F)c2F)n1` [Example 136] was tested, and the herbicidal activity (SETVI (Setaria viridis); 125 g/ha) was “very good (a very good herbicidal activity is given at values of at least 85)”, the herbicidal activity ([2]; 125 g/ha) was “very good (a very good herbicidal activity is given at values of at least 85)” and the herbicidal activity (STEME (Stellaria media); 125 g/ha) was “very good (a very good herbicidal activity is given at values of at least 85)”.
With `CCC(C)(F)c1nc(N)nc(Nc2c(F)cc(F)cc2F)n1` (centres unmarked) [Example 137] the herbicidal activity (SETVI (Setaria viridis); 125 g/ha) was “very good (a very good herbicidal activity is given at values of at least 85)”, the herbicidal activity ([2]; 125 g/ha) was “very good (a very good herbicidal activity is given at values of at least 85)” and the herbicidal activity (STEME (Stellaria media); 125 g/ha) was “very good (a very good herbicidal activity is given at values of at least 85)”.
With `Nc1nc(Nc2c(F)ccc(F)c2F)nc(C2=CCCC2)n1` [Example 119] the herbicidal activity ([1]; 1000 g/ha) was “very good (a very good herbicidal activity is given at values of at least 85)”.
For `CC1(c2nc(N)nc(Nc3c(F)c(F)c(F)c(F)c3F)n2)CCC1` [Example 174], the herbicidal activity (SETVI (Setaria viridis); 250 g/ha) was “very good (a very good herbicidal activity is given at values of at least 85)”, the herbicidal activity ([2]; 250 g/ha) was “very good (a very good herbicidal activity is given at values of at least 85)” and the herbicidal activity (STEME (Stellaria media); 250 g/ha) was “very good (a very good herbicidal activity is given at values of at least 85)”.
In the case of `Nc1nc(Nc2c(F)c(F)c(F)c(F)c2F)nc(C2=CCCCC2)n1` [Example 213], the herbicidal activity ([1]; 500 g/ha) is reported as “good (a good herbicidal activity is given at values of at least 70)”.
For `CC(C)(F)c1nc(N)nc(Nc2c(F)cccc2C(F)(F)F)n1` [Example 107], the herbicidal activity (SETVI (Setaria viridis); 125 g/ha) was “very good (a very good herbicidal activity is given at values of at least 85)”, the herbicidal activity [3] was “very good (a very good herbicidal activity is given at values of at least 85)” and the herbicidal activity (STEME (Stellaria media); 125 g/ha) was “very good (a very good herbicidal activity is given at values of at least 85)”.
With `Nc1nc(Nc2c(F)c(F)c(F)c(F)c2F)nc(C(F)(F)F)n1` [Example 133] the herbicidal activity ([1]; 500 g/ha) was “very good (a very good herbicidal activity is given at values of at least 85)”.
`CC(C)(F)c1nc(N)nc(Nc2cc(C(F)(F)F)ccc2F)n1` [Example 79] was tested, and the herbicidal activity ([1]; 125 g/ha) was “very good (a very good herbicidal activity is given at values of at least 85)”.
In the case of `Nc1nc(Nc2c(F)cc(F)cc2F)nc(C(F)(F)F)n1` [Example 134], the herbicidal activity ([1]; 500 g/ha) is reported as “good (a good herbicidal activity is given at values of at least 70)”.
In the case of `Nc1nc(Nc2c(F)c(F)cc(F)c2F)nc(C2(Cl)CCCC2)n1` [Example 163], the herbicidal activity (SETVI (Setaria viridis); 250 g/ha) is reported as “very good (a very good herbicidal activity is given at values of at least 85)”, the herbicidal activity ([2]; 250 g/ha) is reported as “very good (a very good herbicidal activity is given at values of at least 85)” and the herbicidal activity (STEME (Stellaria media); 250 g/ha) is reported as “very good (a very good herbicidal activity is given at values of at least 85)”.
With `CCC(C)(F)c1nc(N)nc(Nc2c(F)c(F)cc(F)c2F)n1` (centres unmarked) [Example 89] the herbicidal activity (SETVI (Setaria viridis); 125 g/ha) was “very good (a very good herbicidal activity is given at values of at least 85)”, the herbicidal activity ([2]; 125 g/ha) was “very good (a very good herbicidal activity is given at values of at least 85)” and the herbicidal activity (STEME (Stellaria media); 125 g/ha) was “very good (a very good herbicidal activity is given at values of at least 85)”.
For `COC(=O)c1ccc(Nc2nc(N)nc(C(C)(C)F)n2)c(F)c1` [Example 170], the herbicidal activity ([1]; 500 g/ha) was “very good (a very good herbicidal activity is given at values of at least 85)”.
With `Nc1nc(Nc2c(F)cccc2F)nc(C2CCCCC2)n1` [Example 87] the herbicidal activity ([1]; 125 g/ha) was “very good (a very good herbicidal activity is given at values of at least 85)”.
With `CC(F)c1nc(N)nc(Nc2c(F)ccc(F)c2Cl)n1` (centres unmarked) [Example 129] the herbicidal activity ([1]; 500 g/ha) was “very good (a very good herbicidal activity is given at values of at least 85)”.
With `CCC(C)(F)c1nc(N)nc(Nc2c(F)cccc2F)n1` (centres unmarked) [Example 70] the herbicidal activity (SETVI (Setaria viridis); 125 g/ha) was “very good (a very good herbicidal activity is given at values of at least 85)”, the herbicidal activity ([2]; 125 g/ha) was “very good (a very good herbicidal activity is given at values of at least 85)” and the herbicidal activity (STEME (Stellaria media); 125 g/ha) was “very good (a very good herbicidal activity is given at values of at least 85)”.
